Test: general procedure: peptide synthesis; Sasrin resin (Bachem); HATU/DIEA
Settings: conjugation step, several disulfide bridges

amide-GRLPQCVWTMPGMHCAYLGG-COCH2ON═CH—CO-(‘PEG’-succ)12-‘PEG’-CH═NOCH2CO-GGLYACHMGPMTWVCQPLRG-amide
conjugation yield: 20%
